Among all 53,000 sequences or so, about 3,700 (7%) were called active.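 The calls were made as follows: active = gene knockdowns whose robust z-score for IL-1 alpha signal is at least 2 or at most -2, so actives lie on both sides; inactive = the rest.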 The list shows a part of the results.
Assay: Components of the Cytosolic LPS Sensing Pathway: Gene Identification via Genome-wide siRNA Screen;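 also: robust z of the log signal after scaling to non-targeting control siRNA wells of the plate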
Settings: RAW264.7 macrophages, IL-1a HTRF, actives lie on both sides, screened at 100 nM (by protocol), cells primed 5 h with Pam3CSK4 first
Procedure, shortened: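 Mouse macrophage line RAW264.7 is transfected with siRNA (100 nM final), grown 48h, primed with TLR ligand Pam3CSK4 5 h and given intracellular LipidA 24 h. IL-1a in supernatant is read by HTRF and viability by luminescence.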
With GCACACGAUUCCUCAUGGATT against Pigw the z-score was inactive: -0.346. With GCAACUCAAUCUGGUCACUTT against Psme1 the z-score was inactive: -0.292. With GGUGAUUCACAUAACAGGCTT against Npas3 the z-score was active: 2.05. In the case of GGAGUUGUAAAGUUUGGCUTT against Slc12a2, the z-score is reported as inactive: -0.758. With GCCUACAUUCACUCACUCCTT against Olfr1061 the z-score was inactive: -0.016. In the case of GGGAGUUCAACUUGAUGUATT against Irf6, the z-score is reported as inactive: -1.45. With CCCACUGGUUUGUUUAAACTT against Hbegf the z-score was inactive: 0.555. For GGUACACCACAAUCCUCACTT against Olfr676, the z-score was inactive: -0.482. With GCCAAGGUAGAAUCUUGCCTT against Gsdmd the z-score was inactive: -0.197. With GCACGUUCUUUCAAGAAAGTT against Ubald2 the z-score was inactive: -0.625. For CCGAAAGAACACAAUCUAUTT against Ifi204, the z-score was inactive: 1.16. In the case of GGAGCUUAGUCUAAUUGAATT against Ms4a6c, the z-score is reported as inactive: 0.677. With GCUGGAUUACAUCACAUACTT against Sf3a3 the z-score was inactive: -0.366. In the case of CGAGAGCAUUAAUUACUUCTT against Sulf1, the z-score is reported as inactive: 0.621. With GGUGGCCUUUCCUCGAAGATT against Msi1 the z-score was inactive: 0.854. In the case of GGUAACUGUGGACUUGCUUTT against Olfr1213, the z-score is reported as inactive: -1.64. In the case of GGUGGACUACUCACGAUUCTT against Kcnj4, the z-score is reported as inactive: 0.867. With GGAGGAGCCUGUUCCAGAATT against Bcl7c the z-score was inactive: -0.0117. For GGUCUCCUAUCAGAAAGCCTT against Tor1a, the z-score was inactive: -1.37. For GGAGAAUUGCCCAUCUUUGTT against Slf1, the z-score was inactive: 1.24. In the case of GCCACGACCAUUCAGACUCTT against Lrrc42, the z-score is reported as inactive: 1.27. For ACAAAUAUUCCCUGGCCACTT against Slc39a13, the z-score was inactive: 0.45. In the case of UCCUCCUGUCUUACGUACGTT against Prlhr, the z-score is reported as active: 2.05. In the case of GCACAAAGACUUAAACAUCTT against Egfl6, the z-score is reported as inactive: -0.104. With GGUAAUUGAGAAAUUUGAGTT against Mprip the z-score was inactive: -0.824. For CCUGUAGGAUUGUUUUGAATT against Slc39a8, the z-score was inactive: -0.478. For GGAGACAUUCACUGUCUUCTT against Ephb4, the z-score was inactive: -0.322. For GGAGACAAGCUUCUUUGAUTT against Abcb9, the z-score was inactive: -1.65. For GGAUGAAGAUGAAAAGGAATT against Ube3a, the z-score was inactive: -0.519. With GGCAAAAAGUAUGCCUUAGTT against Pi4k2b the z-score was inactive: 0.544. With GGAGAAAGCUUGUGUGGUGTT against Prxl2b the z-score was inactive: -0.446. For GGCUAAUGUAUCGUCUGAGTT against Asb16, the z-score was active: 3.06. With GCAUUUAACAAAGAUUUGGTT against Rnpc3 the z-score was inactive: 0.248. With GGCUUGUGACUACGAAAUATT against Olfr1364 the z-score was inactive: -1.27. With GGAAUUUGAUUCUCUGCCUTT against Zfp646 the z-score was active: 2.96. In the case of CCGUGGAGUAACAAGUAUGTT against Capzb, the z-score is reported as inactive: -1.07. With GGAAAAUCACAAUCACUUGTT against Ccdc43 the z-score was inactive: -0.669. With GGCUUUGUAGCCUAGCUAGTT against Cd81 the z-score was inactive: 0.775. With GGACAUGUACACCUUUGAUTT against Pars2 the z-score was inactive: -0.289. In the case of GGUUACGGAUAUGGAUCUGTT against Krtap19-5, the z-score is reported as inactive: 0.488. For GGAAAGAUGAGACCACCCGTT against Stau1, the z-score was inactive: -0.582. With GGGAGUGGCUGAAAAGUGUTT against Colgalt2 the z-score was inactive: 0.995. For GCUUACCUCCCAACUAUCATT against Dkk3, the z-score was inactive: 0.296. In the case of CCCUGGUGACUACGAGAAUTT against Chrna4, the z-score is reported as inactive: -0.462. In the case of GCCUAGACCAGAGAAAGGUTT against Cep170b, the z-score is reported as inactive: 1.66. With GGAUGUCAAUAGCAUGUGGTT against Adgrg6 the z-score was inactive: 0.612. In the case of GGCUCACAAUUGCUGUGUATT against Psg23, the z-score is reported as inactive: -0.566. In the case of GCUAAUGGUCCAUUGAUAUTT against Btn2a2, the z-score is reported as inactive: 0.229. In the case of GGAAGUACAGAAUUUUGAATT against Sft2d2, the z-score is reported as inactive: 1.46. With CCAAUAGGUCUGCUUGCCUTT against Oxgr1 the z-score was inactive: -0.287. In the case of GGUGUCCAAAAAUAAGCAATT against Top2a, the z-score is reported as inactive: 0.184. With GGAAAUUGUGAAAACUGGGTT against Copb2 the z-score was inactive: -0.86. With GAAGACUUCGUCCUAACAGTT against Ctsg the z-score was inactive: -0.195. For GGUGGUUAUUGGUGGCAGATT against Smc2, the z-score was inactive: -0.344. With GGAGUUAUACGCAUGCCAGTT against Tmem59 the z-score was inactive: 0.639. For GGUUUUUAACCUCUCCUGGTT against Mela, the z-score was inactive: -1.05. For GGAGCUGUAUGACCAUGCCTT against Rab25, the z-score was active: -2.03. With GCUUGAACUUCCCGAGUGUTT against Krtcap3 the z-score was inactive: 0.0501. With GGUGCAGAACUAAUUCCACTT against Clca4a the z-score was inactive: 1.43. With GCUUACCUUGACCAACCUCTT against Chrng the z-score was inactive: -0.937. For GGAGAAAAACAUCUAAGUGTT against Smim8, the z-score was inactive: 0.34. For GCGGUCUUUACUUAGAGGGTT against Bri3, the z-score was inactive: 0.223. For GCAGCAUCCUGUUUCAUUGTT against Trmt9b, the z-score was inactive: 1.74. For GGGAAAACCACAAGACACUTT against Dppa4, the z-score was inactive: -0.374. With GGAUUUAUCAUAUUACUGCTT against Pop1 the z-score was inactive: 0.653. With GGGAACUGUUCAAAAAGACTT against Cnot11 the z-score was inactive: -0.154. For CGAUGACUGGACACAUUUGTT against Sqstm1, the z-score was inactive: -1.41. In the case of GGAGCAGGACGAGAAUCAATT against Cdkn1c, the z-score is reported as active: 3.62. With GGGCAAAAUAGAAGUGAAUTT against Ripor2 the z-score was inactive: -1.5. For GGUCCACUGAUUCUGAUAATT against Cyp4a31, the z-score was inactive: 1.79. For GGACACACACACAAAUUUGTT against Vps29, the z-score was inactive: -1.97. With GCUUUUUGAUCACGUCGCUTT against Hk1 the z-score was inactive: -0.373. In the case of GGCAUUGACAUCAUGUACUTT against Agxt, the z-score is reported as inactive: 1.1. With GGACAGAUGAGAGAGAAUUTT against Ttl the z-score was inactive: -0.601. With GGUUUGGUGAAAACAAUCGTT against Akr1b3 the z-score was inactive: 0.443. For GGAUUGGUGCAACUUCAGATT against Sp4, the z-score was inactive: 0.565. In the case of GGUUGUCAUAAUCUUGUUATT against Irgq, the z-score is reported as inactive: -0.59. With GGUUAUAUCCAUGUGACACTT against Nkg7 the z-score was inactive: -1.15. With GGUUUUUACAGAAGUACAUTT against Atm the z-score was inactive: 0.19. With GGGUUAUAGCUAUAGGACUTT against Olfr64 the z-score was inactive: 0.887. In the case of GGAAAAACUUCACCUUUGGTT against B3galt1, the z-score is reported as inactive: -1.25. For CCCUUCUUCGGGUUUUAACTT against Kcna3, the z-score was active: 3.08. In the case of GGAUUGAGACCUCACAGUGTT against Gorasp2, the z-score is reported as inactive: -0.596. For GGCCAUAAAGGAAAGAGCUTT against Actr1a, the z-score was inactive: 0.3. In the case of GGGCCUGUUAAGCUCAAAGTT against Kmt2b, the z-score is reported as inactive: -0.717. For GCACGAUGUCUCAGCUCUATT against Nipal3, the z-score was active: -2.89. In the case of GGAAGCAGAUGCAGCUGUUTT against Nat8f5, the z-score is reported as inactive: 0.348. For GGAAAAGCAGAUUGAAAUGTT against Gbp2b, the z-score was inactive: -1.24. For CGAAAACAUUAACCUUGGUTT against Mylip, the z-score was inactive: -0.863. For GUCUUUACCGACUGGUUAGTT against Ldoc1, the z-score was inactive: -1.6. In the case of CGUACUAUGGUGCUUUCAUTT against Map4k4, the z-score is reported as inactive: 1.19. For GGCCUACUCAAUCAAAGACTT against Tigd5, the z-score was inactive: 0.48. With CUGAUUCUGGGAAACAGUATT against Tas2r123 the z-score was inactive: -0.968. For GCAACAGUUAACCAUUAGCTT against Ms4a6b, the z-score was inactive: 0.547. For CCAGAAUGUAAAACAACCGTT against Zfp365, the z-score was inactive: 0.588. With GGCUUUCUAUCAAUUUGUGTT against Rlim the z-score was inactive: 0.808. In the case of “GGACAGCGAUAUCUCAAUATT against 1700001P01Rik”, the z-score is reported as inactive: 0.221. With CCUGCUCAAACUUUUGUGGTT against Ephx4 the z-score was inactive: 0.928. For GCCUGACUUUAAUGAAGAATT against Slf2, the z-score was inactive: -1.77. With GGUGAAUAGAACAUCAUCUTT against Lrrc29 the z-score was inactive: -1.76. In the case of GGAUUUAUUUGCCAACACUTT against Actbl2, the z-score is reported as active: -2.28. In the case of GGUCUUCAGCCCAAGAAAUTT against Dsg2, the z-score is reported as inactive: 0.127. In the case of GGUGUCUGAUUCUAACAUATT against Catsper4, the z-score is reported as inactive: 0.589. With GCUGUGUCACUACUUCGAUTT against Rpp40 the z-score was inactive: 1.32. In the case of GCUGUCGACUUUAAAAGGUTT against Pcdhga7, the z-score is reported as inactive: -0.356. With CCUGUCAAAGUUGUAAAAGTT against Zar1 the z-score was inactive: -1.49. In the case of GUUGGUUGUAGGUACUUAUTT against Olfr487, the z-score is reported as inactive: -1.4.

— PubChem BioAssay AID1508600 (Functional Genomics Laboratory (NCATS/FGL), 2020)
